Laboratory results from patent US7265132B2, “Compounds useful as reversible inhibitors of cysteine proteases” (Boehringer Ingelheim Pharmaceuticals Inc., priority 1999, dated 2007).
Some entries share one result that the patent states for a list of compounds.

The chains behind the UniProt entries cited, without tags or fusion partners. Residues count along the entry.
UniProt P25774, 115-331: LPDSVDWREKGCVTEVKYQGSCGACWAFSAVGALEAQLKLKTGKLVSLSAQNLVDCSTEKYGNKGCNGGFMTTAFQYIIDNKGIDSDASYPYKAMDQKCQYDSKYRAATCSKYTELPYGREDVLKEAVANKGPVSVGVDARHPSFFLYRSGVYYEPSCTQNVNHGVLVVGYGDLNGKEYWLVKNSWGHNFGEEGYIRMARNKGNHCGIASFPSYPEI

Target: T1, Cathepsin S (Homo sapiens, UniProt P25774)
T1 construct: endogenous in cells
Experiment: Inhibition of Cathepsin S in a cell based assay (Riese et al., Immunity 1996)
Details: compounds of formulas (I) and (II)

Concentration at which potent inhibition of Cathepsin S in a cell based assay was demonstrated, ≤ 15 µM:
CC(C)(C)CC(NC(=O)c1ccno1)C(=O)NC1(C#N)CCN(Cc2ccccc2)C1 (stereo not drawn) [Isoxazole-5-carboxylic acid [1-(1-benzyl-3-cyano-pyrrolidin-3-ylcarbamoyl)-3,3-dimethyl-butyl]-amide], N#CC1(NC(=O)C(CC2CCCCC2)NC(=O)N2CCOCC2)CCN(C(=O)c2ccccc2)CC1 (stereo not drawn) [Morpholine-4-carboxylic acid [1-(1-benzoyl-4-cyano-piperidin-4-ylcarbamoyl)-2-cyclohexyl-ethyl]-amide], CC(C)(C)CC(NC(=O)N1CCOCC1)C(=O)NC1(C#N)CCN(Cc2ccccc2)C1CO (stereo not drawn) [Morpholine-4-carboxylic acid [1-(1-benzyl-3-cyano-2-hydroxymethyl-pyrrolidin-3-ylcarbamoyl)-3,3-dimethyl-butyl]-amide], N#CC1(NC(=O)C(Cc2ccc(Cl)cc2)NC(=O)N2CCOCC2)CCN(Cc2ccccc2)C1 (stereo not drawn) [Morpholine-4-carboxylic acid [1-(1-benzyl-3-cyano-pyrrolidin-3-ylcarbamoyl)-2-(4-chloro-phenyl)-ethyl]-amide], N#CC1(NC(=O)C(Cc2ccc3ccccc3c2)NC(=O)N2CCOCC2)CCN(Cc2ccccc2)C1 (stereo not drawn) [Morpholine-4-carboxylic acid [1-(1-benzyl-3-cyano-pyrrolidin-3-ylcarbamoyl)-2-naphthalen-2-yl-ethyl]-amide], C=C(C)CC(NC(=O)N1CCOCC1)C(=O)NC1(C#N)CCN(Cc2ccccc2)C1 (stereo not drawn) [Morpholine-4-carboxylic acid [1-(1-benzyl-3-cyano-pyrrolidin-3-ylcarbamoyl)-3-methyl-but-3-enyl]-amide], CC(C)CC(NC(=O)N1CCOCC1)C(=O)NC1(C#N)CCN(Cc2ccccc2)C1 (stereo not drawn) [Morpholine-4-carboxylic acid [1-(1-benzyl-3-cyano-pyrrolidin-3-ylcarbamoyl)-3-methyl-butyl]-amide], CC(C)(C)CC(NC(=O)N1CCOCC1)C(=O)NC1(C#N)CCN(Cc2ccccc2)C1 (stereo not drawn) [Morpholine-4-carboxylic acid [1-(3-cyano-1-benzyl-pyrrolidin-3-ylcarbamoyl)-3,3-dimethyl-butyl]-amide], N#CC1(NC(=O)C(Cc2ccc(I)cc2)NC(=O)N2CCOCC2)CCN(C2CCCCC2)C1 (stereo not drawn) [Morpholine-4-carboxylic acid [1-(3-cyano-1-cyclohexyl-pyrrolidin-3-ylcarbamoyl)-2-(4-iodo-phenyl)-ethyl]-amide], N#CC1(NC(=O)C(CC2CCCCC2)NC(=O)N2CCOCC2)CCN(C2CCCCC2)C1 (stereo not drawn) [Morpholine-4-carboxylic acid [1-(3-cyano-1-cyclohexyl-pyrrolidin-3-ylcarbamoyl)-2-cyclohexyl-ethyl]-amide], Cc1ccc(CC(NC(=O)N2CCOCC2)C(=O)NC2(C#N)CCN(C3CCCCC3)C2)cc1 (stereo not drawn) [Morpholine-4-carboxylic acid [1-(3-cyano-1-cyclohexyl-pyrrolidin-3-ylcarbamoyl)-2-p-tolyl-ethyl]-amide], CC(C)(C)CC(NC(=O)N1CCOCC1)C(=O)NC1(C#N)CCN(CC2CCCCC2)C1 (stereo not drawn) [Morpholine-4-carboxylic acid [1-(3-cyano-1-cyclohexylmethyl-pyrrolidin-3-ylcarbamoyl)-3,3-dimethyl-butyl]-amide], CC(C)CC(NC(=O)N1CCOCC1)C(=O)NC1(C#N)CCN(CC2CCCCC2)C1 (stereo not drawn) [Morpholine-4-carboxylic acid [1-(3-cyano-1-cyclohexylmethyl-pyrrolidin-3-ylcarbamoyl)-3-methyl-butyl]-amide], N#CC1(NC(=O)C(CC2CCCCC2)NC(=O)N2CCOCC2)CCN(C2CCCC2)C1 (stereo not drawn) [Morpholine-4-carboxylic acid [1-(3-cyano-1-cyclopentyl-pyrrolidin-3-ylcarbamoyl)-2-cyclohexyl-ethyl]-amide], CC(C)(C)CC(NC(=O)N1CCOCC1)C(=O)NC1(C#N)CCN(C2CCCC2)C1 (stereo not drawn) [Morpholine-4-carboxylic acid [1-(3-cyano-1-cyclopentyl-pyrrolidin-3-ylcarbamoyl)-3,3-dimethyl-butyl]-amide], N#CC1(NC(=O)C(CC2CCCCC2)NC(=O)N2CCOCC2)CCN(CC2CCCC2)C1 (stereo not drawn) [Morpholine-4-carboxylic acid [1-(3-cyano-1-cyclopentylmethyl-pyrrolidin-3-ylcarbamoyl)-2-cyclohexyl-ethyl]-amide], N#CC1(NC(=O)C(CC2CCCCC2)NC(=O)N2CCOCC2)CCN(C2CC2)C1 (stereo not drawn) [Morpholine-4-carboxylic acid [1-(3-cyano-1-cyclopropyl-pyrrolidin-3-ylcarbamoyl)-2-cyclohexyl-ethyl]-amide], CCN1CCC(C#N)(NC(=O)C(CC2CCCCC2)NC(=O)N2CCOCC2)C1 (stereo not drawn) [Morpholine-4-carboxylic acid [1-(3-cyano-1-ethyl-pyrrolidin-3-ylcarbamoyl)-2-cyclohexyl-ethyl]-amide], CC(C)CN1CCCC(C#N)(NC(=O)C(CC2CCCCC2)NC(=O)N2CCOCC2)C1 (stereo not drawn) [Morpholine-4-carboxylic acid [1-(3-cyano-1-isobutyl-piperidin-3-ylcarbamoyl)-2-cyclohexyl-ethyl]-amide], CC(C)CN1CCC(C#N)(NC(=O)C(CC2CCCCC2)NC(=O)N2CCOCC2)C1 (stereo not drawn) [Morpholine-4-carboxylic acid [1-(3-cyano-1-isobutyl-pyrrolidin-3-ylcarbamoyl)-2-cyclohexyl-ethyl]-amide], CC(C)CN1CCC(C#N)(NC(=O)C(CC(C)(C)C)NC(=O)N2CCOCC2)C1 (stereo not drawn) [Morpholine-4-carboxylic acid [1-(3-cyano-1-isobutyl-pyrrolidin-3-ylcarbamoyl)-3,3-dimethyl-butyl]-amide], CC(C)N1CCC(C#N)(NC(=O)C(CC(C)(C)C)NC(=O)N2CCOCC2)C1 (stereo not drawn) [Morpholine-4-carboxylic acid [1-(3-cyano-1-isopropyl-pyrrolidin-3-ylcarbamoyl)-3,3-dimethyl-butyl]-amide], CN1CCCC(C#N)(NC(=O)C(CC2CCCCC2)NC(=O)N2CCOCC2)C1 (stereo not drawn) [Morpholine-4-carboxylic acid [1-(3-cyano-1-methyl-piperidin-3-ylcarbamoyl)-2-cyclohexyl-ethyl]-amide], CN1CCC(C#N)(NC(=O)C(CC2CCCCC2)NC(=O)N2CCOCC2)C1 (stereo not drawn) [Morpholine-4-carboxylic acid [1-(3-cyano-1-methyl-pyrrolidin-3-ylcarbamoyl)-2-cyclohexyl-ethyl]-amide], N#CC1(NC(=O)C(CC2CCCCC2)NC(=O)N2CCOCC2)CCN(CCc2ccccc2)C1 (stereo not drawn) [Morpholine-4-carboxylic acid [1-(3-cyano-1-phenethyl-pyrrolidin-3-ylcarbamoyl)-2-cyclohexyl-ethyl]-amide], CCCN1CCC(C#N)(NC(=O)C(CC2CCCCC2)NC(=O)N2CCOCC2)C1 (stereo not drawn) [Morpholine-4-carboxylic acid [1-(3-cyano-1-propyl-pyrrolidin-3-ylcarbamoyl)-2-cyclohexyl-ethyl]-amide], CCCN1CCC(C#N)(NC(=O)C(CC(C)(C)C)NC(=O)N2CCOCC2)C1 (stereo not drawn) [Morpholine-4-carboxylic acid [1-(3-cyano-1-propyl-pyrrolidin-3-ylcarbamoyl)-3,3-dimethyl-butyl]-amide], N#CC1(NC(=O)C(CC2CCCCC2)NC(=O)N2CCOCC2)CCCN(c2ncccn2)C1 (stereo not drawn) [Morpholine-4-carboxylic acid [1-(3-cyano-1-pyrimidin-2-yl-piperidin-3-ylcarbamoyl)-2-cyclohexyl-ethyl]-amide], CCCN1CCC(C#N)(NC(=O)C(Cc2ccc(Cl)c(Cl)c2)NC(=O)N2CCOCC2)CC1 (stereo not drawn) [Morpholine-4-carboxylic acid [1-(4-cyano-1-propyl-piperidin-4-ylcarbamoyl)-2-(3,4-dichloro-phenyl)-ethyl]-amide], CCCN1CCC(C#N)(NC(=O)C(Cc2ccc3ccccc3c2)NC(=O)N2CCOCC2)CC1 (stereo not drawn) [Morpholine-4-carboxylic acid [1-(4-cyano-1-propyl-piperidin-4-ylcarbamoyl)-2-naphthalen-2-yl-ethyl]-amide], CCCN1CCC(C#N)(NC(=O)C(CC(C)C)NC(=O)N2CCOCC2)CC1 (stereo not drawn) [Morpholine-4-carboxylic acid [1-(4-cyano-1-propyl-piperidin-4-ylcarbamoyl)-3-methyl-butyl]-amide], CCCN1CCC(C#N)(NC(=O)C(Cc2ccc(Cl)cc2)NC(=O)N2CCOCC2)CC1 (stereo not drawn) [Morpholine-4-carboxylic acid [2-(4-chloro-phenyl)-1-(4-cyano-1-propyl-piperidin-4-ylcarbamoyl)-ethyl]-amide], N#CC1(NC(=O)C(NC(=O)N2CCOCC2)C2CCCCC2)CCN(C2CCCCC2)C1 (stereo not drawn) [Morpholine-4-carboxylic acid [(3-cyano-1-cyclohexyl-pyrrolidin-3-ylcarbamoyl)-cyclohexyl-methyl]-amide]
